PMC8675178
No constants are given. Whether binding was seen depends on the method and setting. In cells and extracts the contact can be indirect. Some binding calls cover weakened binding; strength is not graded here.

By UniProt entry, the sequences of proteins in these tests, tags left out.
UniProt Q16665: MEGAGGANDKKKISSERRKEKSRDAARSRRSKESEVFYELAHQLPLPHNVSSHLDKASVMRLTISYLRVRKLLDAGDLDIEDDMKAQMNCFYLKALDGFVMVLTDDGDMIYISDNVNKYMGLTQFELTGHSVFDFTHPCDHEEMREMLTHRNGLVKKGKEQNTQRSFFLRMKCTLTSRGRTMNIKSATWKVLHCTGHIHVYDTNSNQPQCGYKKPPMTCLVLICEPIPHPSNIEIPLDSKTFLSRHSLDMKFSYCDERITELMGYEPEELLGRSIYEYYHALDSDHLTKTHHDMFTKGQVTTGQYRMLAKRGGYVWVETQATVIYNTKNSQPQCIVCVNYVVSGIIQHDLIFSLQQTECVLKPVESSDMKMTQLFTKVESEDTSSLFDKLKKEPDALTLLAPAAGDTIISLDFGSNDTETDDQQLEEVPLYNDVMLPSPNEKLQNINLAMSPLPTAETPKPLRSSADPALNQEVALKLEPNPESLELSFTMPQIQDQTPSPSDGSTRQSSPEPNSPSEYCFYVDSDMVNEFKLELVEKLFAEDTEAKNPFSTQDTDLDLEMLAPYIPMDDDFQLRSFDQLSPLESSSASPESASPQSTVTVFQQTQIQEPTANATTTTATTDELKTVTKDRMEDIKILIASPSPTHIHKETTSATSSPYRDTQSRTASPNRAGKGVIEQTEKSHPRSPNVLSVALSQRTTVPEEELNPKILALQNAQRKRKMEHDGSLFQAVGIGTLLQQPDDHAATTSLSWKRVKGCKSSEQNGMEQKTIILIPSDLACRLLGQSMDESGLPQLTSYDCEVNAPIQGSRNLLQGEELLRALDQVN
UniProt P14618: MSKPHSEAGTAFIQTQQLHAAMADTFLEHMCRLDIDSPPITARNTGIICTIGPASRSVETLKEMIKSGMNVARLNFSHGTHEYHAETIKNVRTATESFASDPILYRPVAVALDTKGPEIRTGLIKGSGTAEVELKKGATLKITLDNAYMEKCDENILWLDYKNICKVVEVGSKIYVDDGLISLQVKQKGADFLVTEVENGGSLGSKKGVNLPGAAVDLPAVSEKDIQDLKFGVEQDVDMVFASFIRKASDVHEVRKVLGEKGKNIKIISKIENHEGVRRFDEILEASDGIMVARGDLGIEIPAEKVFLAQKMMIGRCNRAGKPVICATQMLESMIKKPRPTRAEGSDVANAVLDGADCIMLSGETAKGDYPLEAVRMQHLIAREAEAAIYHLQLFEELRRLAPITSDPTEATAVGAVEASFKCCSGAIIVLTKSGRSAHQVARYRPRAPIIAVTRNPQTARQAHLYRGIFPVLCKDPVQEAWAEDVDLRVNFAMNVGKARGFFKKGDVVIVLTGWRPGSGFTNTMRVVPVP

Target: HIF-1α (human (endogenous in gastric cancer cell lines)) (UniProt Q16665)
Experiment: co-IP; lysates of gastric cancer cells; supernatants precipitated with rabbit IgG or HIF-1α-specific polyclonal antibody overnight at 4°C, protein A/G beads 12 h at 4°C, four washes, SDS-PAGE

binding: binds
Substance: PKM2 (from UniProt P14618 1-531) (enzyme)
